No constants are given. Whether binding was seen depends on the method and setting. Binding seen in cells or lysates may run through a third protein. Some binding calls cover weakened binding; strength is not graded here.
What was measured:
[1] = target: SHP-1 (human (endogenous in SH-SY5Y)) (UniProt P29350); assay: co-IP; SHP-1 immunoprecipitated from whole cell extracts (500 ug) of untreated TrkAIII SH-SY5Y cells, Western blot
[2] = target: SHP-1 (human (endogenous in SH-SY5Y)) (UniProt P29350); assay: co-IP; SHP-1 immunoprecipitated from whole TrkAIII SH-SY5Y cell extracts (500 ug), Western blot; cells treated with TRAIL 200 ng/ml (6 hours in the text, 12 hours in the legend); c-Src also found from untreated cells

Sequences of proteins named here, by UniProt entry; tags and fusion partners are left off. A change or cut given only in a name is not applied to a line headed by its entry. A line that says so, or that is headed by a name, gives the form on record, which may keep a tag or linker.
UniProt P29350: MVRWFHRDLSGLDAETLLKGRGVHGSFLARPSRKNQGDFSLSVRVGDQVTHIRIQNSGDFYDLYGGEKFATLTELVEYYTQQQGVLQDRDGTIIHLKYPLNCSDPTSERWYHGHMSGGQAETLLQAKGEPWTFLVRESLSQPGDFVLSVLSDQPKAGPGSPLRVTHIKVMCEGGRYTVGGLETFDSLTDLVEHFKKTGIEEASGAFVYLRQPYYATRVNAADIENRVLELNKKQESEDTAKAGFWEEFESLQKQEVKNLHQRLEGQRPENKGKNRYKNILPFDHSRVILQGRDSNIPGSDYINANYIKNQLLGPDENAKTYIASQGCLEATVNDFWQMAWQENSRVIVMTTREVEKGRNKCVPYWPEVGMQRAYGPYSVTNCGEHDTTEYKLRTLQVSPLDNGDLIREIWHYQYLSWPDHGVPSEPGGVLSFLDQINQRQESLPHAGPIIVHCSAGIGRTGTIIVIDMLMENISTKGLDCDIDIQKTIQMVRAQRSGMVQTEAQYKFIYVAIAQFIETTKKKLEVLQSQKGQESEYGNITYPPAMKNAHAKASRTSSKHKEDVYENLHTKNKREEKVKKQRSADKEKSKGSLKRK
TrkAIII (alternative TrkAIII splice variant of tropomyosin related kinase A), Y674/675 phosphorylated (P04629-4, form named): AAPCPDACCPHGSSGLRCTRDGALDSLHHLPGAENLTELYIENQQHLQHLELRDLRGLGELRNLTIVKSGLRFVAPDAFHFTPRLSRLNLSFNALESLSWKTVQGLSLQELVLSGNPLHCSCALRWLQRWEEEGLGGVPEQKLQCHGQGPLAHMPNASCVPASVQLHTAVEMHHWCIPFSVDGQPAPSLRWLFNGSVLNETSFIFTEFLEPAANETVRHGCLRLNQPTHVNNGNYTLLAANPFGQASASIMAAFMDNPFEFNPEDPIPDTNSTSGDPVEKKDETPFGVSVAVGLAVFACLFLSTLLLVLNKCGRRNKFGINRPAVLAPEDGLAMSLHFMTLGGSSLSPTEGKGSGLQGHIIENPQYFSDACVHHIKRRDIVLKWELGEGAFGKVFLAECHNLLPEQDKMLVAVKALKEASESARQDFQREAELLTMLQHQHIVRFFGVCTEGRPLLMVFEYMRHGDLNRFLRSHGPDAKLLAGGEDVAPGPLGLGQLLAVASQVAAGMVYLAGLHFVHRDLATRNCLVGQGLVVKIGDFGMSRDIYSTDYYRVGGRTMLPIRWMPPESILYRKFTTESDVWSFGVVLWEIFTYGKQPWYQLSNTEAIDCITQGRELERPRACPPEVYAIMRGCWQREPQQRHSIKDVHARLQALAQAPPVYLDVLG

binding [2]: binds
Substance: TrkAIII (alternative TrkAIII splice variant of tropomyosin related kinase A), Y674/675 phosphorylated (from UniProt P04629-4 33-698) (receptor)
binding [1]: no binding (condition: untreated cells (without TRAIL))

From publication PMC5348358
